At least one compound was matched to its structure with a doubt left.
Tested on: Ovarian cancer cell line A2780
Assay: 17-AAG and pGranzyme A combination in ovarian cancer cells (cell viability)
Assay type: cell-based
Details: A2780, 20 nM 17-AAG, 48 hours

C=CCNC1=C2C[C@@H](C)C[C@H](OC)[C@H](O)[C@@H](C)/C=C(\C)[C@H](OC(N)=O)[C@@H](OC)/C=C\C=C(/C)C(=O)NC(=CC1=O)C2=O [17-AAG, 17-N-Allylamino-17-demethoxygeldanamycin]
toxicity of the drug to the cells: toxic

Source: patent publication US20200061163A1, “METHODS OF TREATING CANCER WITH THE COMBINATION OF GRANZYME A GENE DELIVERY AND HSP90 INHIBITION” (ARIZONA BOARD OF REGENTS ON BEHALF OF ARIZONA STATE …, priority 2018, published 2020)
